Experimental data published in paper PMC11862893.

Amino acid sequences for entries named in this document (tags omitted). A change or cut given only in a name is not applied to a line headed by its entry. Residues count along the entry.
UniProt P18084, residues 24-799: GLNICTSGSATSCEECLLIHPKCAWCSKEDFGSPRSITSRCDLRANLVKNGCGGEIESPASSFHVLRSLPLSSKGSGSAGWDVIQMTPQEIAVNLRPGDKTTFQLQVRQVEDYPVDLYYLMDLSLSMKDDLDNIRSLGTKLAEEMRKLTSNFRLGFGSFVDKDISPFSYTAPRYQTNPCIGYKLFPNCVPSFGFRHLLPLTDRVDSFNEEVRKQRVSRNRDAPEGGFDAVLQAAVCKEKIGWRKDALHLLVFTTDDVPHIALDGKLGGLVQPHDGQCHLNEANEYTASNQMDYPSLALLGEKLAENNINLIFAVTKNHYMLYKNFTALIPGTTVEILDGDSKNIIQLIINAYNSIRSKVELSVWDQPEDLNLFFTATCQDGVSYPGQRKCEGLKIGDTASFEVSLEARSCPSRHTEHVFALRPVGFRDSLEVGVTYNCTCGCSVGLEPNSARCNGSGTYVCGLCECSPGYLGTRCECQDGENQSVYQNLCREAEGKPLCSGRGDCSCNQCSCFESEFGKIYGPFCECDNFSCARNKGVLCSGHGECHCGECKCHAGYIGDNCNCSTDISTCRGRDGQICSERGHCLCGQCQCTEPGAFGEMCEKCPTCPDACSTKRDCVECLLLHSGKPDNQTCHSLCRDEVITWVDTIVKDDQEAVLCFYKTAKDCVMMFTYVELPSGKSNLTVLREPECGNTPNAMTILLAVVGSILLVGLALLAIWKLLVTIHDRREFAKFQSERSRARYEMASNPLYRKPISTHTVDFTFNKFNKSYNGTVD
UniProt Q8NAU1: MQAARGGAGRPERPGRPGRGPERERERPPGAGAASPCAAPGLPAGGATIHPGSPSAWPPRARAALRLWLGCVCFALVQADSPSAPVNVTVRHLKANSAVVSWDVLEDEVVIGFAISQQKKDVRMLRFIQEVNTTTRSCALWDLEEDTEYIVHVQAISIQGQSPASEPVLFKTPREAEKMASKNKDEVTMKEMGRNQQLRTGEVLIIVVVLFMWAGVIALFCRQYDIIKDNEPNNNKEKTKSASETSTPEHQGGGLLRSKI

Target: integrin β5/ITGB5 (human (endogenous in HK-2)) (UniProt P18084)
Assay: co-IP; HK-2 cells (TECs) treated with recombinant irisin, lysed in modified RIPA buffer; lysate with 4 µg anti-integrin αV or anti-integrin β5 antibody and protein A/G-agarose beads overnight at 4°C, five washes; immunoblot for irisin/FNDC5, integrin αV and integrin β5; IgG control; only the binder purified

binding: binds
Substance: irisin (from UniProt Q8NAU1) (ligand)

No constants are given. Whether binding was seen depends on the method and setting. Binding seen in cells or lysates may run through a third protein. Binding calls can cover weak binding; strength is not graded here.
